Reference: PubChem BioAssay AID493246 (Drosophila RNAi Screening Center, 2011)
Test: 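Identify essential fly genes by loss of cell viability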 (primary screen). Cell system: Drosophila Kc and S2R+ cells. Reagent: long dsRNA against Drosophila genes. Detection: 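Raw, unnormalised count of remaining cells in each well; per-plate z-scores of cell number underlie the calls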. Direction: Kc cell number and S2R+ cell number: higher = more cells remaining. Call rule: 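Active when the per-plate z-score of cell number is 3 or more in the direction of fewer cells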.
In all, the deposit lists about 21,000 reagents; below is a random part of those with a known target gene and a result. Over the whole deposit, 429 (2%) are marked active. 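Values are raw and not normalised between plates; calls rest on per-plate z-scores that were not deposited.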 Not given: the amount of reagent, the time to read-out.

| predicted target | PubChem SID | Kc cell number, rep 1 | Kc cell number, rep 2 | S2R+ cell number, rep 1 | S2R+ cell number, rep 2 | outcome |
| --- | --- | --- | --- | --- | --- | --- |
| CG15642 | SID104199470 | 1.53e6 | 1.49e6 | 1.06e6 | 1.09e6 | inactive |
| CG30486 | SID104186472 | 1.56e6 | 1.62e6 | 1.35e6 | 1.44e6 | inactive |
| Oct-TyrR | SID104191675 | 1.45e6 | 1.36e6 | 1.39e6 | 1.44e6 | inactive |
| Mur11Da | SID104198752 | 1.47e6 | 1.68e6 | 1.12e6 | 1.19e6 | inactive |
| CG33013 (retired record) | SID104186078 | 1.44e6 | 1.52e6 | 1.28e6 | 1.35e6 | inactive |
| eIF3d2 | SID104195443 | 1.90e6 | 1.95e6 | 1.32e6 | 1.43e6 | inactive |
| CG5790 | SID104182688 | 1.39e6 | 1.43e6 | 1.36e6 | 1.29e6 | inactive |
| CG11426 | SID104191450 | 1.76e6 | 2.09e6 | 1.21e6 | 1.37e6 | inactive |
| CG2852 | SID104184113 | 1.64e6 | 1.72e6 | 1.25e6 | 1.33e6 | inactive |
| lap | SID104192420 | 1.56e6 | 1.62e6 | 1.40e6 | 1.46e6 | inactive |
| CG14441 | SID104197726 | 1.36e6 | 1.41e6 | 6.81e5 | 7.68e5 | inactive |
| Sqor | SID104188245 | 1.44e6 | 1.49e6 | 1.31e6 | 1.34e6 | inactive |
| ClC-a | SID104194739 | 1.72e6 | 1.78e6 | 1.20e6 | 1.34e6 | inactive |
| ClC-a | SID104194740 | 1.60e6 | 1.73e6 | 1.34e6 | 1.35e6 | inactive |
| ClC-a | SID104195934 | 1.45e6 | 1.55e6 | 1.15e6 | 1.17e6 | inactive |
| Neu2 | SID104191611 | 1.44e6 | 1.41e6 | 1.29e6 | 1.40e6 | inactive |
| Brf | SID104193020 | 1.76e6 | 1.75e6 | 1.07e6 | 1.15e6 | inactive |
| Brf | SID104193958 | 1.34e6 | 1.44e6 | 1.16e6 | 1.28e6 | inactive |
| Brf | SID104193959 | 1.27e6 | 1.31e6 | 1.21e6 | 1.30e6 | inactive |
| Ctr1C | SID104194881 | 1.42e6 | 1.46e6 | 1.04e6 | 1.16e6 | inactive |
| Tfb4 | SID104180467 | 1.47e6 | 1.50e6 | 9.36e5 | 1.14e6 | inactive |
| DIP-zeta | SID104181995 | 1.58e6 | 1.63e6 | 1.16e6 | 1.31e6 | inactive |
| DIP-zeta | SID104181996 | 1.52e6 | 1.57e6 | 1.20e6 | 1.28e6 | inactive |
| DIP-zeta | SID104181997 | 1.46e6 | 1.56e6 | 1.17e6 | 1.29e6 | inactive |
| CG5810 | SID104195672 | 1.23e6 | 1.24e6 | 1.08e6 | 1.09e6 | inactive |
| jtb | SID104186660 | 1.60e6 | 1.62e6 | 1.12e6 | 1.24e6 | inactive |
| CG14205 | SID104199352 | 1.66e6 | 1.66e6 | 1.14e6 | 1.29e6 | inactive |
| Or56a | SID104187287 | 1.75e6 | 1.78e6 | 1.15e6 | 1.35e6 | inactive |
| Vps24 | SID104192124 | 1.62e6 | 1.76e6 | 1.11e6 | 1.30e6 | inactive |
| Drsl5 | SID104187951 | 1.55e6 | 1.32e6 | 8.91e5 | 1.07e6 | inactive |
| ver | SID104189917 | 1.35e6 | 1.49e6 | 1.21e6 | 1.43e6 | inactive |
| CG14374 | SID104194626 | 1.21e6 | 1.21e6 | 1.22e6 | 1.34e6 | inactive |
| Mzt1 | SID104187771 | 1.45e6 | 1.42e6 | 9.96e5 | 1.15e6 | inactive |
| CG2964 | SID104180346 | 1.52e6 | 1.75e6 | 1.08e6 | 1.12e6 | inactive |
| Ugt36D1 | SID104182392 | 1.45e6 | 1.54e6 | 1.31e6 | 1.22e6 | inactive |
| KCNQ | SID104185913 | 1.60e6 | 1.65e6 | 1.22e6 | 1.28e6 | inactive |
| KCNQ | SID104186022 | 1.52e6 | 1.68e6 | 1.25e6 | 1.32e6 | inactive |
| Adss | SID104193954 | 1.36e6 | 1.43e6 | 9.44e5 | 9.82e5 | inactive |
| ebd1 | SID104188357 | 1.13e6 | 1.26e6 | 8.60e5 | 1.02e6 | inactive |
| CG3841 | SID104182522 | 1.56e6 | 1.60e6 | 1.18e6 | 1.32e6 | inactive |
| Rgk3 | SID104184042 | 1.59e6 | 1.68e6 | 1.17e6 | 1.27e6 | inactive |
| Rgk3 | SID104184043 | 1.78e6 | 1.82e6 | 1.23e6 | 2.10e5 | inactive |
| Rgk3 | SID104184046 | 1.64e6 | 1.64e6 | 1.16e6 | 2.47e5 | inactive |
| Rgk3 | SID104184047 | 1.60e6 | 1.68e6 | 1.27e6 | 2.20e5 | inactive |
| CG30427 | SID104183806 | 1.42e6 | 1.50e6 | 9.40e5 | 1.04e6 | inactive |
| CG30427 | SID104184103 | 1.37e6 | 1.39e6 | 1.15e6 | 1.17e6 | inactive |
| CG30427 | SID104184115 | 1.50e6 | 1.64e6 | 1.45e6 | 1.73e6 | inactive |
| CG5708 | SID104182673 | 1.50e6 | 1.57e6 | 1.15e6 | 1.30e6 | inactive |
| CG4935 | SID104181716 | 1.60e6 | 1.67e6 | 1.34e6 | 1.51e6 | inactive |
| ppk6 | SID104185854 | 1.66e6 | 1.71e6 | 1.21e6 | 1.35e6 | inactive |
| CG15765 | SID104197863 | 3.36e5 | – | 6.46e5 | – | inactive |
| CG42531 | SID104185110 | 1.59e6 | 1.56e6 | 1.02e6 | 1.27e6 | inactive |
| hbs | SID104187419 | 1.54e6 | 1.57e6 | 1.33e6 | 1.42e6 | inactive |
| scro | SID104196891 | 1.47e6 | 1.60e6 | 1.01e6 | 1.11e6 | inactive |
| scro | SID104196894 | 1.72e6 | 1.82e6 | 1.01e6 | 1.21e6 | inactive |
| CG14397 | SID104182173 | 1.62e6 | 1.69e6 | 1.30e6 | 3.88e5 | inactive |
| CHMP2B | SID104190228 | 1.42e6 | 1.52e6 | 1.29e6 | 1.08e6 | inactive |
| RpL27A | SID104180573 | 9.59e5 | 9.22e5 | 6.30e5 | 7.36e5 | active |
| FucTB | SID104182537 | 1.48e6 | 1.52e6 | 1.13e6 | 1.31e6 | inactive |
| Vps45 | SID104196190 | 1.42e6 | 1.43e6 | 1.20e6 | 1.25e6 | inactive |
| RIC-3 | SID104184035 | 1.43e6 | 1.55e6 | 1.13e6 | 1.24e6 | inactive |
| RIC-3 | SID104184335 | 1.41e6 | 1.58e6 | 1.34e6 | 2.37e5 | inactive |
| CG12679 | SID104200285 | 1.39e6 | 1.47e6 | 1.02e6 | 1.09e6 | inactive |
| lectin-29Ca | SID104182427 | 1.63e6 | 1.64e6 | 1.23e6 | 1.36e6 | inactive |
| Mtr3 | SID104190745 | 1.41e6 | 1.46e6 | 1.16e6 | 1.22e6 | inactive |
| CG18557 | SID104180316 | 1.58e6 | 1.62e6 | 1.33e6 | 1.25e6 | inactive |
| CG31777 | SID104179993 | 1.59e6 | 1.59e6 | 1.05e6 | 1.14e6 | inactive |
| sty | SID104188529 | 1.58e6 | 1.44e6 | 1.08e6 | 1.37e6 | inactive |
| CG12895 | SID104186002 | 1.52e6 | 1.56e6 | 1.24e6 | 1.27e6 | inactive |
| CG4658 | SID104182560 | 1.76e6 | 1.83e6 | 1.41e6 | 1.58e6 | inactive |
| Hml | SID104190975 | 1.58e6 | 1.73e6 | 1.58e6 | 1.59e6 | inactive |
| Cf2 | SID104180536 | 1.08e6 | 1.04e6 | 5.97e5 | 7.02e5 | active |
| CG4080 | SID104190190 | 1.35e6 | 1.39e6 | 1.35e6 | 1.27e6 | inactive |
| key | SID104184077 | 1.29e6 | 1.38e6 | 9.41e5 | 9.76e5 | inactive |
| HLH54F | SID104187230 | 1.68e6 | 1.64e6 | 1.33e6 | 1.50e6 | inactive |

Laid out differently: 7 of the entries above
predicted target | PubChem SID | Kc cell number, rep 1 | Kc cell number, rep 2 | S2R+ cell number, rep 1 | S2R+ cell number, rep 2 | outcome
DIP-zeta | SID104181995 | 1.58e6 | 1.63e6 | 1.16e6 | 1.31e6 | inactive
DIP-zeta | SID104181996 | 1.52e6 | 1.57e6 | 1.20e6 | 1.28e6 | inactive
DIP-zeta | SID104181997 | 1.46e6 | 1.56e6 | 1.17e6 | 1.29e6 | inactive
CG5810 | SID104195672 | 1.23e6 | 1.24e6 | 1.08e6 | 1.09e6 | inactive
jtb | SID104186660 | 1.60e6 | 1.62e6 | 1.12e6 | 1.24e6 | inactive
CG14205 | SID104199352 | 1.66e6 | 1.66e6 | 1.14e6 | 1.29e6 | inactive
Or56a | SID104187287 | 1.75e6 | 1.78e6 | 1.15e6 | 1.35e6 | inactive
